In article PMC5609105:
Construct, isoform or probe ends are uncertain for at least one entry. For some of these results: A negative result means that nothing was seen under these conditions. For some of these results: Where a protein sequence is shown, tags need not be part of it. For some of these results: Weaker means in comparison with the reference protein, sequence or condition of that experiment.

Legend:
Assay in all cases: EMSA
[1] = target: VviDREBA1-1 (VvCBF4) (Vitis vinifera cv. Autumn Royal) (UniProt A0A411JIL1); settings: 500x unlabeled competitor added before labeled probe, recombinant protein, residues 1-218, protein details: N-terminal His6 (pTrcHisA), label: 3' biotin
[2] = target: VviDREBA1-6 (VvCBF3) (Vitis vinifera cv. Autumn Royal) (UniProt A0A291NW84); settings: no binding or only unspecific binding; 500x unlabeled competitor added before labeled probe; recombinant protein; residues 1-239; protein details: N-terminal His6 (pTrcHisA); label: 3' biotin
[3] = target: T1, VviDREBA1-7 (VvCBF2) (Vitis vinifera cv. Autumn Royal) (UniProt A0A291NW80); settings: no binding or only unspecific binding; 500x unlabeled competitor added before labeled probe; recombinant protein; residues 1-253; protein details: N-terminal His6 (pTrcHisA); label: 3' biotin
T1 sequence (looked up): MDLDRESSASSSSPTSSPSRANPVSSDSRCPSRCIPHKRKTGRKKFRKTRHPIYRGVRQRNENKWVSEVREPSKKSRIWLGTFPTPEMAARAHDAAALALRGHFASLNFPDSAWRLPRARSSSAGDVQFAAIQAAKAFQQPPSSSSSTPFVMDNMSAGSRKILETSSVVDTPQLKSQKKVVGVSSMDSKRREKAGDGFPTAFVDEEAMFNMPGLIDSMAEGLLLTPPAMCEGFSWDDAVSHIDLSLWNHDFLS

TGCTTGCCGACGCCAATAGA (double strand) [VviDHN2* CRT probe (changed flanks)]
binding result [1]: binds more weakly

ATCGAGGCCGACATTTCCTGG (double strand) [VviDHN2 CRT probe]
binding result [2]: no binding
binding result ([1]; abolished by 500x unlabeled probe): binds
binding result [3]: no binding
